PubChem BioAssay AID1259254, NCATS – 2017
This is a random part of about 59,000 reagents. In the full data, about 1,550 (2.6%) are marked active. 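G2 share is only a proxy for re-replication; each gene was hit by three separate siRNAs, and active genes were retested.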 The numbers tell different reagents against one gene apart. Not all columns of the deposit are shown. Not stated in the record: the amount of reagent.

Assay: 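Genome-wide screen for genes that prevent DNA re-replication in cancer cells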 (primary screen)
System: human HCT116 colorectal cancer cells
Reagent: single siRNA against human genes
Duration: 3 days
Measurement: 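Nuclei stained with Hoechst and imaged; cell-cycle phase assigned by DNA content; G2 share scaled per plate, non-targeting siRNA 0%, GMNN siRNA 100%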
Reading the numbers: G2 robust z-score: higher = more G2 cells, more excess DNA replication
Active means: 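Active siRNAs have a G2 robust z of 5 or more median absolute deviations over the median, which in these data means about 38% or higher of GMNN control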

After knock-down of SMIM48 (small integral membrane protein 48) #1, the screen gave G2 robust z-score 2.46; inactive. Silencing of SMIM48 (small integral membrane protein 48) #2 gave: G2 robust z-score 3.36; inactive. SMIM48 (small integral membrane protein 48) #3 scored G2 robust z-score -0.713; inactive. For TRE17 (retired record) #1, the entry reads G2 robust z-score 0.093; inactive. Knock-down of TRE17 (retired record) #2 came out at: G2 robust z-score -0.881; inactive. Knock-down of TRE17 (retired record) #3 resulted in: G2 robust z-score -0.453; inactive.

Against MEF2A (myocyte enhancer factor 2A) #1, the values are G2 robust z-score -0.413; inactive. MEF2A (myocyte enhancer factor 2A) #2 gave G2 robust z-score -0.46; inactive. For MEF2A (myocyte enhancer factor 2A) #3, the values are G2 robust z-score 1.46; inactive. LMOD1 (leiomodin 1) #1 showed G2 robust z-score 0.522; inactive. With knock-down of LMOD1 (leiomodin 1) #2, the screen gave G2 robust z-score -0.102; inactive. Depletion of LMOD1 (leiomodin 1) #3 resulted in: G2 robust z-score 2.18; inactive.

Depletion of SPAG11B (sperm associated antigen 11B) #1 resulted in: G2 robust z-score -0.329; inactive. SPAG11B (sperm associated antigen 11B) #2 showed G2 robust z-score 0.0396; inactive. SPAG11B (sperm associated antigen 11B) #3 scored G2 robust z-score -0.531; inactive.

Reprinted from the listing (2 entries):
LMOD1 (leiomodin 1) #3 | G2 robust z-score = 2.18; Outcome = inactive
SPAG11B (sperm associated antigen 11B) #1 | G2 robust z-score = -0.329; Outcome = inactive

Next results:
Against TICAM2 (TIR domain containing adaptor molecule 2) #1 the deposit lists G2 robust z-score -0.923; inactive. For TICAM2 (TIR domain containing adaptor molecule 2) #2, the values are G2 robust z-score 5.3; active. After knock-down of TICAM2 (TIR domain containing adaptor molecule 2) #3, the screen gave G2 robust z-score -1.01; inactive. Against MAP3K4 (mitogen-activated protein kinase kinase kinase 4) #1, the values are G2 robust z-score 1.66; inactive. With knock-down of MAP3K4 (mitogen-activated protein kinase kinase kinase 4) #2 the results were G2 robust z-score -0.704; inactive. MAP3K4 (mitogen-activated protein kinase kinase kinase 4) #3 showed G2 robust z-score 0.0604; inactive.

After knock-down of ANXA9 (annexin A9) #1 the results were G2 robust z-score -0.195; inactive. Silencing of ANXA9 (annexin A9) #2 gave: G2 robust z-score 0.723; inactive. For ANXA9 (annexin A9) #3, the entry reads G2 robust z-score 0.777; inactive.
